Assay results published in PubChem BioAssay AID2685 (National Center for Advancing Translational Sciences (NCATS), 2010).
Out of some 320,000 compounds screened, about 2,100 (0.66%) were called active. Inconclusive results, whose numbers are uncertain, are shown with a selection of clear calls. Calls come from the whole dose curve; as a rule, active = well fitted inhibition curve with a large enough effect in the signal ratio, with a control signal flat (not every such curve was filed as active); inconclusive = small, poorly fitted or top-dose-only effect, or effect the other way, or a change in a side signal; inactive = flat fitted curve, though single readings scatter; the % refers to the signal ratio. Where the call is inconclusive, the potency comes from a doubtful curve fit.

assay: qHTS Assay for Lipid Storage Modulators in Drosophila S3 Cells; conditions: BODIPY lipid droplet fluorescence, 18-24 h, cells fed with added oleic acid; lipid storage change, negative = inhibition: at 46.1 µM (top of the series) unless noted
How it was run: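 Drosophila S3 cells got compounds at several concentrations plus oleic acid (400 uM solution). Laser-scanning cytometry with 488 nm excitation read lipid droplets at 500-530 nm and cells at 575-640 nm. Percent activity was relative to 20 uM Triacsin C.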
% is set by controls: 0 for no effect and ±100 for the full control effect; potency is the fitted concentration of half-maximal effect.

Row | Structure (SMILES) | lipid storage change, negative = inhibition | Potency
1 | Cc1nonc1C1CCCN1C(=O)c1cc(COc2ccc(F)cc2F)on1 (stereo not given) | inconclusive: 13.5% | –
2 | NS(=O)(=O)c1cc(C2(O)NC(=O)c3ccccc32)ccc1Cl (stereo not given) | inconclusive: 0.0682% | –
3 | COc1ccc(NC(=O)CSc2nnc(-c3cc(C)[nH]n3)n2N)cc1 | inconclusive: 212% | –
4 | Nc1cc(N)nc(SCCN2CCCCC2)n1 | – | active: 0.0184 µM
5 | CCOC(=O)CC(=O)CSc1nc2c(cc1C#N)CCCCC2 | inconclusive: 17.2% | –
6 | O=C(CCSc1ccccc1)NCCN1CCOCC1 | inconclusive: 27.2% | –
7 | O=C(CC1(C(F)(F)F)OCCO1)Nc1ccc2c(c1)OCO2 | inconclusive: 62.8% | –
8 | Cc1cc(C(=O)OCC(=O)NC2CC2)ccc1[N+](=O)[O-] | – | inconclusive: 6.51 µM [activator, single point]
9 | CCc1ccccc1NC(=O)c1nnn(CC(=O)Nc2cccc(C)c2)c1N | inconclusive: -12.7% | –
10 | O=C(CN1C(=O)c2ccccc2S1(=O)=O)Nc1ncccn1 | inconclusive: -1.39% | –
11 | CC(C)Sc1nc(-c2cccs2)nc2c1c(=O)n(C)c(=O)n2C | inconclusive: 14.7% | –
12 | Cc1ccc(OCC(=O)N(C)CC(=O)Nc2ccccc2Cl)c([N+](=O)[O-])n1 | inconclusive: 36.4% | –
13 | CCN(C(=O)COC(=O)C1CCN(S(=O)(=O)c2ccc3c(c2)OCCO3)CC1)C1CCCCC1 | inconclusive: 13.4% | –
14 | CCOC(=O)c1[nH]c2c(c1-c1ccccc1)C(=O)CC(c1ccc(Cl)cc1)C2 (stereo not given) | – | inconclusive: 1.3 µM [activator, partial curve]
15 | CC(CO)Nc1nc(SCc2ccccc2)nc2sc3c(c12)CCC3 (stereo not given) | – | inconclusive: 6.51 µM [rising, single point]
16 | O=C(COC(=O)c1c[nH]c2ccccc12)Nc1cccc(F)c1 | inconclusive: -33.8% | –
17 | CC(=O)c1sc(-c2c(C)nc3sccn23)nc1C1CCCC1 | inconclusive: 44% | –
18 | CC(=O)Nc1ccc(SCC(=O)NC(=O)c2ccccc2Br)cc1 | – | inconclusive: 18.4 µM [activator, single point]
19 | CC(O)CNC(=S)Nc1ccccc1 (stereo not given) | inconclusive: 2.79% | –
20 | CCOC(=O)CN(Cc1ccccc1)C(=O)OC(C)(C)C | inconclusive: 69.7% | –
21 | COc1ccc(C(=O)NC2CCCCC2)cc1S(=O)(=O)N1CCOCC1 | – | inconclusive: 5.8 µM [falling, full curve]
22 | N=C(N)Sc1nc(N2CCCCC2)nc(N2CCCCC2)n1 | inactive | –
23 | O=C1NCCN1C(=O)c1cccc(Cl)c1 | inactive | –
24 | CCOc1cc(/C=N/NC(=O)CN2CCCCC2)ccc1OCc1ccc(Cl)cc1 | – | inconclusive: 2.06 µM [activator, full curve, poor fit]
25 | O=C(NCCN1CCOCC1)c1ccccc1N1C(=O)[C@@H]2Cc3c([nH]c4ccccc34)C(c3ccc(F)cc3)N2C1=O (stereo not given in full) | – | inconclusive: 2.31 µM [activator, single point]
26 | COc1ccc(NC(=S)N(CCc2c(C)[nH]c3ccc(C)cc23)Cc2cccnc2)cc1 | inconclusive: 26.2% | –
27 | CCc1nnc(NC(=O)C2CCCN(C(=O)c3ccc(Cl)cc3)C2)s1 (stereo not given) | – | inconclusive: 16.4 µM [falling, single point]

Row | Structure (SMILES) | lipid storage change, negative = inhibition | Potency
28 | Cc1onc(-c2ccccc2)c1C(=O)N/N=C/c1c(F)cccc1Cl | inconclusive: 15.3% | –
29 | CC(C)N1CC(C(=O)Nc2ccc(F)c(Cl)c2)CC1=O (stereo not given) | inconclusive: -1.08% | –
30 | Cc1ccc(NC(=O)CCn2cnc3ccccc3c2=O)c(C)c1 | inconclusive: 12.1% | –
31 | CC(C)OC(=O)C(C#N)c1nc2ccccc2nc1N1CCN(Cc2ccc3c(c2)OCO3)CC1 (stereo not given) | inconclusive: -17.4% | –
32 | CCOC(=O)c1cccc(NC(=O)Cn2c(CC(=O)N3CCCC3)nc3ccccc32)c1 | inconclusive: 24.2% | –
33 | CS(=O)(=O)N1CCC(C(=O)NCc2ccccc2)CC1 | inconclusive: -6.44% | –
34 | COc1cc(C(=O)OCC(=O)N(C)c2ccccc2)cc(OC)c1OC | inconclusive: -67.5% | –
35 | O=C1NC2(CCCCC2)C(=O)N1CC(=O)N(Cc1ccccc1)c1ccccc1 | inconclusive: 31.3% | –
36 | CCn1c2ccccc2c2nnc(SCc3ccccc3)nc21 | – | inconclusive: 9.2 µM [activator, partial curve, poor fit]
37 | O=C(CN1C(=O)C2C3CCC(C3)C2C1=O)NCc1ccco1 (stereo not given) | inconclusive: -2.17% | –
38 | O=C1NN=COc2ccccc21 | – | inconclusive: 0.366 µM [falling, partial curve, poor fit]
39 | O=C(Cn1cc([N+](=O)[O-])cn1)N1CCCc2ccccc21 | inconclusive: 10.5% | –
40 | CCN(CC)S(=O)(=O)c1ccc(N2CCOCC2)c(NC(=O)c2ccc3ccccc3c2)c1 | inconclusive: 2.62% | –
41 | Cc1cc(S(=O)(=O)n2cnc3cc([N+](=O)[O-])ccc32)ccc1Cl | inconclusive: 54.7% | –
42 | Cc1cc(C)c(C#N)c(SCc2cn3c(C)cccc3n2)n1 | inconclusive: 50.7% [activator] | –
43 | CCOc1ccccc1C(=O)Nc1ccc2c(c1)C(=O)NC2=O | – | inconclusive: 4.11 µM [falling, full curve]
44 | CC(=O)Oc1ccc(NC(=O)Cc2ccccc2)cc1 | inconclusive: -2.71% | –
45 | COc1ccc(/C=C2\Sc3ccc(C(=O)NCCCN4CCCC4)cc3N(C)C2=O)cc1OC | inconclusive: 11% | –
46 | CC(C)N(CCNC(=O)c1ccc(OCC2CCCO2)cc1)C(C)C (stereo not given) | – | inconclusive: 1.46 µM [falling, partial curve]
47 | O=C(CSc1nnc(-c2cccs2)n1Cc1ccco1)Nc1ccc2c(c1)OCO2 | – | inconclusive: 0.231 µM [activator, partial curve]
48 | OCC[C@@H]1C[C@H](O)[C@@H](O)[C@@]2(Cc3ccccc3CO2)O1 | inconclusive: -32.9% | –
49 | COc1ccc(S(=O)(=O)NC2CCCCCC2)cc1C(N)=O | inconclusive: 9.77% | –
50 | O=C(NCc1ccco1)c1ccc(CS(=O)Cc2ccc(Cl)cc2)o1 (stereo not given) | inconclusive: -18.6% | –
51 | COCCN(CC1CCCN(C2Cc3ccccc3C2)C1)C(=O)CCC(F)(F)F (stereo not given) | inactive | –
52 | CN1C(=O)CSc2ccc(NC(=O)NCc3ccc(F)cc3)cc21 | inconclusive: -3.49% | –
53 | CCCCN(C(=O)CC1CCCC1)c1c(N)n(CCC)c(=O)[nH]c1=O | inconclusive: 51.3% | –
54 | CCOC(=O)c1c(-c2ccc(C)o2)csc1NC(=S)NC(=O)c1cccs1 | inconclusive: -53.3% | –

Structural class, those above containing a cyano group (3)
Row | Structure (SMILES) | lipid storage change, negative = inhibition | Potency
5 | CCOC(=O)CC(=O)CSc1nc2c(cc1C#N)CCCCC2 | inconclusive: 17.2% | –
31 | CC(C)OC(=O)C(C#N)c1nc2ccccc2nc1N1CCN(Cc2ccc3c(c2)OCO3)CC1 (stereo not given) | inconclusive: -17.4% | –
42 | Cc1cc(C)c(C#N)c(SCc2cn3c(C)cccc3n2)n1 | inconclusive: 50.7% [activator] | –

Record cards (already shown):
`O=C(NCc1ccco1)c1ccc(CS(=O)Cc2ccc(Cl)cc2)o1` (stereo not given) is listed as lipid storage change, negative = inhibition: inconclusive: -18.6%
`CCN(CC)S(=O)(=O)c1ccc(N2CCOCC2)c(NC(=O)c2ccc3ccccc3c2)c1` is listed as lipid storage change, negative = inhibition: inconclusive: 2.62%

Additional compounds

Row | Structure (SMILES) | lipid storage change, negative = inhibition | Potency
55 | COc1ccccc1CCC(=O)OCC(=O)Nc1cc(C)nn1-c1ccccc1 | inactive | –
56 | CCOc1ccc2c(c1)-c1c(ssc1=S)C(C)(C)N2C | inconclusive: -93.5% | –
57 | O=C(N/N=C/c1cccs1)c1cc(-c2ccncc2)nc2ccccc12 | – | inconclusive: 5.17 µM [activator, partial curve]
58 | Cc1cc(C)c2cc(C#N)c(N3CCCN(C(=O)c4cnccn4)CC3)nc2c1 | – | inconclusive: 6.51 µM [falling, single point]
59 | N#CC1=C(N)Oc2cc(N)ccc2C1c1ccc(F)cc1F (stereo not given) | inconclusive: 17.4% | –
60 | CCOC(=O)c1ccc(NC(=O)c2n[nH]c(=O)c3ccccc23)cc1 | – | inconclusive: 0.13 µM [falling, full curve]
61 | CCOc1ncccc1C(=O)N(CC)CC(=O)Nc1ccc(NC(C)=O)cc1 | inactive | –
62 | Fc1cccc(C2CC(c3cccc(Br)c3)Nc3nnnn32)c1 (stereo not given) | – | inconclusive: 1.84 µM [activator, partial curve, poor fit]
63 | CCOC(=O)[C@H]1[C@H]2COc3ccc(OC)cc3[C@@H]2N2C(=O)c3ccc(Cl)cc3NC(=O)[C@@]12C | – | active: 4.11 µM
64 | Cc1nc2cc(Cl)c(Cl)cc2nc1C | – | inconclusive: 2.59 µM [activator, full curve]
65 | FC(F)(F)c1cccc(CON=C2CCN(c3ncc(C(F)(F)F)cc3Cl)CC2)c1 | inconclusive: 6.94% | –
66 | COc1cc(S(=O)(=O)Nc2ccc(C)cc2)ccc1N=Cc1c(C)c(C#N)c(=O)n(C)c1O | inconclusive: -27.8% | –
67 | CS(=O)(=O)c1nc(-c2ccc(F)cc2)cc(C(F)(F)F)n1 | inconclusive: -98.5% | –
68 | CN(C)c1ccc(NC(=O)CN2CCC(N3CCCCC3)CC2)cc1 | – | active: 23.1 µM
69 | N#CC(c1ccc(O)cc1)c1ncc(C(F)(F)F)cc1Cl (stereo not given) | inconclusive: -8.93% | –
70 | O=c1c2ccccc2nnn1COc1ccc(Cl)cc1Br | – | inconclusive: 29.1 µM [rising, single point]
71 | O=C(CC1CCCC1)NNC(=O)c1ccc(Br)cc1 | – | inconclusive: 0.146 µM [activator, full curve, poor fit]
72 | COC(=O)c1ccc(OC(=O)c2nn(C)cc2Cl)c(OC)c1 | inconclusive: -33% | –
73 | CCOCCc1nn2c(=O)cc(CSCC(=O)Nc3cc(C)cc(C)c3)nc2s1 | inconclusive: 23.1% | –
74 | O=C(Nc1nnc(-c2ccc(Cl)cc2)o1)Nc1ccccc1Cl | inconclusive: -5.56% | –
75 | CNC(=O)c1sc(-c2ccc(Cl)cc2)nc1C | inconclusive: 13% | –
76 | COc1ccc(Nc2ncnc3scc(-c4ccc(OC)cc4)c23)cc1 | – | inconclusive: 25.9 µM [falling, single point]
77 | O=C(CN(Cc1ccc(F)cc1)C(=O)CCC(=O)Nc1ccccn1)NCc1ccco1 | inconclusive: 21.9% | –
78 | CCOc1ccc(NC(=S)Nc2ccc3nsnc3c2)cc1 | – | inconclusive: 20.6 µM [falling, single point]
79 | Cc1c(Cl)c(C(F)(F)F)nn1CC(=O)NN | inconclusive: 19.2% | –
80 | N#Cc1ccccc1OCC(=O)OCC(=O)NC1CCCCCC1 | – | inconclusive: 29.1 µM [falling, single point]
